The results in this text go back to PubChem BioAssay AID1487 (National Center for Advancing Translational Sciences (NCATS), 2009).

This assay in a line: qHTS Assay for Modulators of Lamin A Splicing. The conditions noted are these: HeLa LMNA splicing GFP/RFP minigene ratio, 48 h. In short, it runs like this: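 S3 HeLa cells stably expressing lamin A-EGFP splicing minigene plus DsRed2, 600 cells/well, 48 h compound exposure at 37C. Laser-scanning cytometry; analysed as GFP (500-530 nm)/RFP (575-640 nm) total intensity ratio; 0.5% DMSO vehicle.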

The mark [1] stands for this setting: measured here: GFP splicing reporter channel.
Setting [2] is: measured here: RFP viability control channel.

Each structure is given as a SMILES string. The list shows a part of the results. Shown are side measurements of this screen, not its main read-out; they come without a call. Most of these compounds were active or inconclusive in the main read-out, so they are no random draw. The note in brackets gives the kind of curve behind each potency; many fits are weak.

Turning to `Cc1ccc(S(=O)(=O)Nc2ccc3nc(-c4ccc(F)cc4)oc3c2)cc1`, the AC50 is 25.1 µM [falling, single point] under setting [1] and 14.1 µM [falling, partial curve] under setting [2].
Regarding `CCOC(=O)CNC(=S)N(Cc1ccc(C)cc1)Cc1ccc(C)o1`, the AC50 runs as follows: under setting [1], 14.1 µM [rising, single point]; under setting [2], 14.1 µM [rising, single point].
As for `FC(F)(F)c1ccc(/C=N/N2CCN(Cc3ccccc3)CC2)cc1`, under setting [2], the AC50 is 12.6 µM [rising, single point].
Take `Nc1cc[n+](CC(=O)Nc2ccccc2)cc1`: under setting [2], the concentration at half-maximal activity (AC50) was 12.6 µM [falling, single point].
On to `CCCCCCNc1c(C(=O)OCC)c(=O)[nH]c2ccccc12`, for which the AC50 under setting [1] is 12.6 µM [rising, partial curve] and the AC50 under setting [2] was 11.2 µM [rising, partial curve].
As for `Cc1cccc(CNc2cc(-c3c(C)noc3C)ncn2)c1`, under setting [1], the AC50 was 12.6 µM [falling, partial curve].
On to `Cc1ccc(CNC(=O)c2c(C)oc3ncnc(N4CCOCC4)c23)cc1`, for which the half-maximal activity concentration (AC50) is, setting by setting: under setting [1], 4.47 µM [falling, full curve, poor fit]; under setting [2], 6.31 µM [falling, partial curve, poor fit].
Regarding `CC1=CC(C)(C)N2C(=O)C3(NCCc4c3[nH]c3ccccc43)c3cc(C)cc1c32` (configuration not stated), the half-maximal activity concentration (AC50) under setting [2] is 5.01 µM [rising, partial curve].
For `O=C(CCSc1ccccc1)Nc1nc2c(s1)CCCC2`, under setting [2], the half-maximal activity concentration (AC50) was 35.5 µM [rising, single point].
As to `O=C(COC(=O)Cc1c[nH]c2ccccc12)NC1CCCCC1`, the concentration at half-maximal activity (AC50) under setting [1] is 2 µM [rising, full curve, poor fit].
Take `O=C(CSc1ncnc2c1oc1ccccc12)N1CCCc2ccccc21`: under setting [2], the AC50 is 11.2 µM [rising, partial curve, poor fit].
Consider `COc1cccc(NC(=O)C(OC(=O)c2ccccc2NS(=O)(=O)c2cccs2)c2ccccc2)c1` (configuration not stated), for which the AC50 was 7.94 µM [rising, partial curve] under setting [1] and 14.1 µM [rising, partial curve, poor fit] under setting [2].
For the molecule `COc1cc(OC)c(N(C)C(=O)c2c(C)oc3ncn(CC(C)C)c(=O)c23)cc1Cl`, the half-maximal activity concentration (AC50) under setting [1] is 0.00891 µM [falling, full curve, poor fit].
Turning to `COc1cccc(-n2c(SCC(=O)Nc3cc(C)on3)nc3ccccc3c2=O)c1`, under setting [2], the AC50 was 10 µM [rising, partial curve, poor fit].
With `Cc1ccc(NC(=O)Cn2cc(S(=O)(=O)Cc3ccc(F)cc3)c3ccccc32)cc1Cl`, the AC50 under setting [1] was 12.6 µM [rising, partial curve, poor fit] and the concentration at half-maximal activity (AC50) under setting [2] is 31.6 µM [rising, single point].
As for `CCN1C(=O)/C(=C2\SC(=S)N(CCCOC)C2=O)c2ccccc21`, the half-maximal activity concentration (AC50) runs as follows: under setting [1], 3.98 µM [falling, single point]; under setting [2], 3.98 µM [falling, single point].
`COc1ccc(-c2cc(C(F)(F)F)c3c(n2)sc2c(O)cc(=O)[nH]c23)c(OC)c1`: under setting [2], the AC50 was 12.6 µM [rising, partial curve].
`COc1cccc(Nc2ncnc3ccccc23)c1`: under setting [2], the AC50 was 35.5 µM [rising, single point].
Take `C/C(=N\n1cnnc1)c1ccc(C#N)cc1`: the half-maximal activity concentration (AC50) runs as follows: under setting [1], 3.98 µM [rising, single point]; under setting [2], 3.55 µM [rising, partial curve].
`COc1ccc(/C=N/NC(=O)CCN2CCN(c3ccccc3)CC2)c(OC)c1OC`: the half-maximal activity concentration (AC50) under setting [2] was 3.98 µM [rising, partial curve, poor fit].
In the case of `CC(C)(C)C(=O)CNS(=O)(=O)c1ccc(S(=O)(=O)NC2CCCC2)cc1`, the AC50 under setting [2] was 31.6 µM [rising, single point].
Consider `COC1=C(Nc2ccc(OC)cc2)C(=O)c2ccccc2C1=O`, for which the AC50 is 20 µM [rising, partial curve] under setting [1] and 35.5 µM [rising, partial curve] under setting [2].
As for `O=c1ccc2cc3c4c(c2o1)CCCN4CCC3`, the AC50 runs as follows: under setting [1], 0.00447 µM [falling, full curve, poor fit]; under setting [2], 0.00447 µM [falling, full curve, poor fit].
With `O=c1cnn([C@@H]2O[C@H](CO)[C@@H](O)[C@H]2O)c(=O)[nH]1`, the AC50 by setting is: under setting [1], 5.62 µM [rising, partial curve, poor fit]; under setting [2], 0.224 µM [rising, full curve].
In the case of `Cc1ccc(NC(=O)/C=C\C(=O)N(c2ccc(C(C)C)cc2)C(C(=O)NCc2ccco2)c2ccc(F)cc2)cc1` (configuration not stated), the AC50 is, setting by setting: under setting [1], 0.251 µM [falling, full curve, poor fit]; under setting [2], 0.2 µM [falling, full curve, poor fit].
`COc1cccc(-c2ccc(C#N)c(SCC(=O)NCc3ccco3)n2)c1`: under setting [1], the AC50 was 0.00316 µM [rising, full curve, poor fit].
Consider `COC(=O)C1=C(O)C(C(=O)OC)C(c2ccc(C)cc2)C(C#N)(C#N)C1c1ccc(C)cc1` (configuration not stated), for which the AC50 under setting [2] was 6.31 µM [rising, full curve].
Consider `COc1cc(C(=O)NCC(=O)N/N=C(/C)c2ccc3c(c2)CCCC3)cc(OC)c1OC`, for which the AC50 under setting [2] was 2.24 µM [rising, partial curve, poor fit].
On to `CCCCNC(=S)Nc1ccc(SC(F)F)cc1`, for which the concentration at half-maximal activity (AC50) under setting [2] is 10 µM [rising, partial curve, poor fit].
Regarding `CCN(CC)S(=O)(=O)c1ccc(N=NC2=C(O)CC(C)(C)CC2=O)cc1`, the concentration at half-maximal activity (AC50) under setting [1] was 2.51 µM [rising, partial curve].
On to `O=C(C/C=N\OCc1ccc([N+](=O)[O-])cc1)Nc1ccc(Cl)cc1`, for which the AC50 is 35.5 µM [falling, partial curve, poor fit] under setting [1] and 7.94 µM [falling, partial curve] under setting [2].
Turning to `COc1ccc(CNC(=O)CC2C(=O)NCCN2CC(C)(C)C)c(OC)c1` (configuration not stated), under setting [1], the AC50 was 22.4 µM [rising, partial curve, poor fit].
In the case of `CN(C)c1ccc(NC(=O)CSc2n[nH]c(-c3ccco3)n2)cc1`, the half-maximal activity concentration (AC50) under setting [2] was 0.0398 µM [falling, full curve, poor fit].
As to `Cc1ccc(S(=O)(=O)CCSc2cccc(C(=O)Nc3ccccc3C(=O)O)c2)cc1`, the AC50 under setting [2] is 35.5 µM [rising, single point].
